Reference: patent publication US7129208B2 (Washington University, priority 2002, dated 2006)
The star is where a group is joined. Boc = CC(C)(C)OC(=O)*

Legend:
[1] = general procedure: solution-phase peptide synthesis; EDCI, EDCI/HOBt; PyCloP for SEQ ID NO: 7

(H37C18)2N—CO—CH2—O—CH2—CO-Gly-Gly-Gly-Pro-Gly-Gly-Gly-piperonylamine
step yield (peptide synthesis; late stage modification step): 76%

Pro-Gly-Gly-Gly-OCH2Ph
step yield ([1]; late stage modification step): 100%

(C18H37)2NCOCH2OCH2CO-Gly-Gly-Gly-Pro-Gly-Gly-Gly-OCH2Ph (GGGPGGG; N-terminal dioctadecylamide anchor, C-terminal benzyl ester; Synthetic amino acids)
step yield (peptide synthesis; coupling step): 82%

(H17C8)2N—CO—CH2—O—CH2—CO-Gly-Gly-Gly-Pro-Gly-Gly-Gly-OCH2Ph
step yield (peptide synthesis; coupling step): 50%

182DGA-Gly-Gly-Gly-3-amino-4-methoxybenzoic Acid-Gly-Gly-Gly-OBz
step yield (peptide synthesis; coupling step): 28%

Boc-Pro-Gly-Gly-Gly-OCH2Ph
step yield ([1]; coupling step): 71%

(H21C10)N(C2H5)—CO—CH2—O—CH2—CO-Gly-Gly-Gly-Pro-Gly-Gly-Gly-OCH2Ph
step yield (peptide synthesis; coupling step): 75%

Boc-Pip-Gly-Gly-Gly-OCH2Ph
step yield ([1]; coupling step): 91%

(H37C18)2N—CO—CH2—O—CH2—CO-Gly-Gly-Gly-Pip-Gly-Gly-Gly-OCH2Ph
step yield (peptide synthesis; coupling step): 82%

Boc-PGGG-OEt
step yield ([1]; coupling step): 87.6%

(H37C18)2N—CO—CH2—O—CH2—CO-Gly-Gly-Gly-Pro-Gly-Gly-Gly-OEt
step yield (peptide synthesis; coupling step): 37.5%
